No constants are given. Whether binding was seen depends on the method and setting. In cells and extracts the contact can be indirect. Some results given as binding are weak or reduced against the parent protein; the word gives no strength. Tags and fused reporters may be left off the sequences shown.
Experiments:
[1] = target: Cdc27 (UniProt P30260); assay: co-IP; borealin with Cdc27 (Fig. 2A; Fig. S1A); which protein was precipitated is not told
[2] = target: HA-tagged Cdc20 (UniProt Q12834); assay: co-IP; 293T cells co-transfected with FLAG–Borealin and HA- or Myc-tagged partner, 10 µM MG132 for 5 h; extracts immunoprecipitated with polyclonal antibody against HA or Myc, immunoblotting
[3] = target: HA-tagged Cdh1 (UniProt Q9UM11); assay: as above
[4] = target: Myc–CUL1 (UniProt Q13616); assay: as above
[5] = target: Myc–CUL2 (UniProt Q13617); assay: as above
[6] = target: Myc–CUL3 (UniProt Q13618); assay: as above
[7] = target: Myc–CUL5 (UniProt Q93034); assay: as above

By UniProt entry, the sequences of proteins in these tests, tags left out.
UniProt P30260: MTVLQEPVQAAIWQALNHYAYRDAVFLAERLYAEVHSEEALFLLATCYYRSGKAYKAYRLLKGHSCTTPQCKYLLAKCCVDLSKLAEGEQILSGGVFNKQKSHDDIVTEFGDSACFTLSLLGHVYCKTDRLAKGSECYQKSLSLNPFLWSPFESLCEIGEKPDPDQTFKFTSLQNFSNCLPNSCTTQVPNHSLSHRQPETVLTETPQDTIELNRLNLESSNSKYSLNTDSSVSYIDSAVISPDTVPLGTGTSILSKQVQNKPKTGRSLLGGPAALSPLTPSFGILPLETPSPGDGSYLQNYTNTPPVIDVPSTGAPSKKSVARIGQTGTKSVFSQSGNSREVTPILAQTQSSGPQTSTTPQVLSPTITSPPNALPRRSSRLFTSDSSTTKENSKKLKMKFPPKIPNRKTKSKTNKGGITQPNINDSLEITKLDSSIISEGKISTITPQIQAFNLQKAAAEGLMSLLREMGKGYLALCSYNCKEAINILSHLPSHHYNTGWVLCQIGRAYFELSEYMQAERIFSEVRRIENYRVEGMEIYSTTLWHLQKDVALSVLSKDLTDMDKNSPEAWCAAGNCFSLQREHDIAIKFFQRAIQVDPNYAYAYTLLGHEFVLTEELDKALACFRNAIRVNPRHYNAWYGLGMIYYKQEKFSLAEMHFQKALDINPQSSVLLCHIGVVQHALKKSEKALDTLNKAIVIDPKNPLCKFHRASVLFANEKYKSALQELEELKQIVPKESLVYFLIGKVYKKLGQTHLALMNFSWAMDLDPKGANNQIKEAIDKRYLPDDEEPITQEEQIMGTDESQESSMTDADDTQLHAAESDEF
UniProt Q12834: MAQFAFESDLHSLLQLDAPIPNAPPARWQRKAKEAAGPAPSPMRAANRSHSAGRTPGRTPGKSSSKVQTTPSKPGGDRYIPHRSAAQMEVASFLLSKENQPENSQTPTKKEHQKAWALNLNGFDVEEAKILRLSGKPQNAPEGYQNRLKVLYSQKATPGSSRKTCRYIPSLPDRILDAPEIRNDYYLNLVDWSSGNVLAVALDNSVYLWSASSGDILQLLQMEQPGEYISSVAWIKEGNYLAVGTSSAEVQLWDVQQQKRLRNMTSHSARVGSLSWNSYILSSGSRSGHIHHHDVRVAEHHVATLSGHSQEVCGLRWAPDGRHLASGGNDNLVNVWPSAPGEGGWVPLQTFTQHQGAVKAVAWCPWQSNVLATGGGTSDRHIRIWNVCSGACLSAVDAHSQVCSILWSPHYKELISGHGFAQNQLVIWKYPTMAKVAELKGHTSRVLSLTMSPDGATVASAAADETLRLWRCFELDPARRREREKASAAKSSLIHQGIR
UniProt Q9UM11: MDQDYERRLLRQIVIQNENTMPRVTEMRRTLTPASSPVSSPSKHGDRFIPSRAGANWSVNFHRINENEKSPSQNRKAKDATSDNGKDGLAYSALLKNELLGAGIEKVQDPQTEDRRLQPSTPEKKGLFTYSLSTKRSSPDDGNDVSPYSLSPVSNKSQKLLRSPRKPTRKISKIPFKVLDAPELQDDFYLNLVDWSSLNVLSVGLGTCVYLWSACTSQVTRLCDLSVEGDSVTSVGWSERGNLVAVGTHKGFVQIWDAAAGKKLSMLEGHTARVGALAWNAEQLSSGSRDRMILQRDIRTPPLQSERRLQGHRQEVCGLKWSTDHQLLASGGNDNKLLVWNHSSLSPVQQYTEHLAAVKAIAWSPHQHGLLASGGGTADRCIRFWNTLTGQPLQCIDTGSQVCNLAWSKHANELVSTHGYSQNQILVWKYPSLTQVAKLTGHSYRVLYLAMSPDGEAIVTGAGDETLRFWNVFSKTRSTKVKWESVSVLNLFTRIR
UniProt Q13616: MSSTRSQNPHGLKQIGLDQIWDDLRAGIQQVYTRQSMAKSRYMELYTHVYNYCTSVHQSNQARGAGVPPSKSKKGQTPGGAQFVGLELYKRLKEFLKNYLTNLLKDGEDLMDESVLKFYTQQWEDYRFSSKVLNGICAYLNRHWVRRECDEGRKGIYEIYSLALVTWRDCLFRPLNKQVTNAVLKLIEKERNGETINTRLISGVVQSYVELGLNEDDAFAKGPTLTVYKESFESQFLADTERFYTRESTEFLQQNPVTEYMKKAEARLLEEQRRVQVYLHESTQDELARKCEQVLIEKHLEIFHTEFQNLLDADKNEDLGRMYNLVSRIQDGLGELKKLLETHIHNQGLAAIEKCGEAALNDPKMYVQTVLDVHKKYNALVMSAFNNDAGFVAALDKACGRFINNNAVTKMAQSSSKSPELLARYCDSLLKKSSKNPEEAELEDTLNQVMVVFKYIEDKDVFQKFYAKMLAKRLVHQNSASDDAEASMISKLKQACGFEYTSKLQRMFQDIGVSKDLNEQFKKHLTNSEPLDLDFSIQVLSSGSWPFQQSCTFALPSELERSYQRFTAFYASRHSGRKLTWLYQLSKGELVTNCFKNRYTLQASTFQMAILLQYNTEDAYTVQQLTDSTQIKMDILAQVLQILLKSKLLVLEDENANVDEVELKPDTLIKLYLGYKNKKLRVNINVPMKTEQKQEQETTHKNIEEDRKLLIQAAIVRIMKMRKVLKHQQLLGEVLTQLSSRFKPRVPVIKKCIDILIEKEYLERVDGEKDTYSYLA
UniProt Q13617: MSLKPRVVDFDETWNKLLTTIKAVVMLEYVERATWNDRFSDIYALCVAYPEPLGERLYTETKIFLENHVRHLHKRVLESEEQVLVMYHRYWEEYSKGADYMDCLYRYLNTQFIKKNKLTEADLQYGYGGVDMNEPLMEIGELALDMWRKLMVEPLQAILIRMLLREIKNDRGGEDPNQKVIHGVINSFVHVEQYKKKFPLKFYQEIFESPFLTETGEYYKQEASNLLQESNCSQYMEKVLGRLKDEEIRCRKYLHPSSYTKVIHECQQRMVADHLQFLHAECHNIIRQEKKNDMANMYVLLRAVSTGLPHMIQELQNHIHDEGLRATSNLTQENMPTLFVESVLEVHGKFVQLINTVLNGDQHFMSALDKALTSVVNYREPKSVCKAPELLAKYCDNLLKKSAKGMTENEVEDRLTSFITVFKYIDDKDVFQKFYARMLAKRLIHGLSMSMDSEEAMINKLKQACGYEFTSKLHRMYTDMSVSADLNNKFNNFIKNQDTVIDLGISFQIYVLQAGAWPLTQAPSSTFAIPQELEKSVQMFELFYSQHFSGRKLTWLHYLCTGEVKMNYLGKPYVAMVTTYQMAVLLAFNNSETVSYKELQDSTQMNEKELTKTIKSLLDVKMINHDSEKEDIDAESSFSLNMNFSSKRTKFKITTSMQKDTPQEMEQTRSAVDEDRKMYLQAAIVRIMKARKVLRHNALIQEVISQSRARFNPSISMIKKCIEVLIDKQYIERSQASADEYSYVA
UniProt Q93034: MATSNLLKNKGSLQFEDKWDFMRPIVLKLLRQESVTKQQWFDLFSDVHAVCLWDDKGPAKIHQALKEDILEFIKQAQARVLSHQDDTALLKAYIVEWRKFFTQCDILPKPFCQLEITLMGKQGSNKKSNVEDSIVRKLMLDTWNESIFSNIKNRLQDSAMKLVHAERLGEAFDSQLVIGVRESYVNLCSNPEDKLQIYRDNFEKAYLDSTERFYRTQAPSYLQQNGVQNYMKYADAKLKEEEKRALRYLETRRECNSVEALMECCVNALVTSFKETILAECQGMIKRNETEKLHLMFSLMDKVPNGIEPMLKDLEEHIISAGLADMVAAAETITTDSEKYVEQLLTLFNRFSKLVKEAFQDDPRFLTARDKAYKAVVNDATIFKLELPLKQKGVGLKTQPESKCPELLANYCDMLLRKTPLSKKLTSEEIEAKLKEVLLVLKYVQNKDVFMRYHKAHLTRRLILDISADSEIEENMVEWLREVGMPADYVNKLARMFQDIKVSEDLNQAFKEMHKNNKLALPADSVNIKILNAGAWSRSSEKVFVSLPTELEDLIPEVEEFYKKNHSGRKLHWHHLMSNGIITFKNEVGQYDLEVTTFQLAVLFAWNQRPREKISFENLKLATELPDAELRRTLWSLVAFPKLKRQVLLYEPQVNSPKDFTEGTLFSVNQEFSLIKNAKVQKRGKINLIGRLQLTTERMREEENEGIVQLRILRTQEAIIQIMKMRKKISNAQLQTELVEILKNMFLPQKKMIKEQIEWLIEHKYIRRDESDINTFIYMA

binding [1]: binds | binding [2]: no binding | binding [3]: binds | binding [4]: no binding | binding [5]: no binding | binding [6]: no binding | binding [7]: no binding
B1: FLAG-tagged wild-type (WT) borealin (protein, UniProt Q53HL2 1-280)
chain: MAPRKGSSRVAKTNSLRRRKLASFLKDFDREVEIRIKQIESDRQNLLKEVDNLYNIEILRLPKALREMNWLDYFALGGNKQALEEAATADLDITEINKLTAEAIQTPLKSAKTRKVIQVDEMIVEEEEEEENERKNLQTARVKRCPPSKKRTQSIQGKGKGKRSSRANTVTPAVGRLEVSMVKPTPGLTPRFDSRVFKTPGLRTPAAGERIYNISGNGSPLADSKEIFLTVPVGGGESLRLLASDLQRHSIAQLDPEALGNIKKLSNRLAQICSSIRTHK
